Consider 1 molecule from publication doi:10.1101/218206.

The test deals with T1, C11ORF70 (human) (UniProt Q9BRQ4).
T1 sequence: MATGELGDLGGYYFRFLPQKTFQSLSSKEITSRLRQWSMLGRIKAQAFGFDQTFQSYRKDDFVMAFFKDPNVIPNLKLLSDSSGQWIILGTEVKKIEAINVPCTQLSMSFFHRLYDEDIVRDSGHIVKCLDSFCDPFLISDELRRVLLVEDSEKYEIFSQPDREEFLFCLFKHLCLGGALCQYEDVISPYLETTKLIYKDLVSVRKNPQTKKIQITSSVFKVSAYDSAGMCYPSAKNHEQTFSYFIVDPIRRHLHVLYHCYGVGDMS
Nature of the test: two-hybrid.

No constants are given. Whether binding was seen depends on the method and setting. Some results given as binding are weak or reduced against the parent protein; the word gives no strength.

B1: DNAAF2 (protein, UniProt Q9NVR5 1-837)
chain: MAKAAASSSLEDLDLSGEEVQRLTSAFQDPEFRRMFSQYAEELTDPENRRRYEAEITALERERGVEVRFVHPEPGHVLRTSLDGARRCFVNVCSNALVGAPSSRPGSGGDRGAAPGSHWSLPYSLAPGREYAGRSSSRYMVYDVVFHPDALALARRHEGFRQMLDATALEAVEKQFGVKLDRRNAKTLKAKYKGTPEAAVLRTPLPGVIPARPDGEPKGPLPDFPYPYQYPAAPGPRAPSPPEAALQPAPTEPRYSVVQRHHVDLQDYRCSRDSAPSPVPHELVITIELPLLRSAEQAALEVTRKLLCLDSRKPDYRLRLSLPYPVDDGRGKAQFNKARRQLVVTLPVVLPAARREPAVAVAAAAPEESADRSGTDGQACASAREGEAGPARSRAEDGGHDTCVAGAAGSGVTTLGDPEVAPPPAAAGEERVPKPGEQDLSRHAGSPPGSVEEPSPGGENSPGGGGSPCLSSRSLAWGSSAGRESARGDSSVETREESEGTGGQRSACAMGGPGTKSGEPLCPPLLCNQDKETLTLLIQVPRIQPQSLQGDLNPLWYKLRFSAQDLVYSFFLQFAPENKLSTTEPVISISSNNAVIELAKSPESHGHWREWYYGVNNDSLEERLFVNEENVNEFLEEVLSSPFKQSMSLTPPLIEVLQVTDNKIQINAKLQECSNSDQLQGKEERVNEESHLTEKEYIEHCNTPTTDSDSSIAVKALQIDSFGLVTCFQQESLDVSQMILGKSQQPESKMQSEFIKEKSATCSNEEKDNLNESVITEEKETDGDHLSSLLNKTTVHNIPGFDSIKETNMQDGSVQVIKDHVTNCAFSFQNSLLYDLD
In the case of B1, the binding entry is listed as “binds”.
